From article PMC4537050, “A long pentraxin-3-derived pentapeptide for the therapy of FGF8b-driven steroid hormone-regulated cancers” (Oncotarget, 2015)
Results are given in words; binding and its absence hold for the method and conditions named.

Tests used:
Assay in all cases: condition: ARPCA up to 2000 μM (as described for FGF8b); SPR; BIAcore X-100; FGF8b (20 μg/ml in 10 mM sodium acetate, pH 6.0) or other FGFs (10 mM sodium acetate at optimal pH) immobilised on a CM5 sensor chip by EDC/NHS; peptide injected (ARPCA 8 μM to 2000 μM), 4 min at 30 μl/min, 10 min dissociation, in HBS; equilibrium values fitted with the Langmuir equation for monovalent binding; both purified
FGF10 = molecular target: T1, FGF10 (UniProt O15520)
T1 sequence: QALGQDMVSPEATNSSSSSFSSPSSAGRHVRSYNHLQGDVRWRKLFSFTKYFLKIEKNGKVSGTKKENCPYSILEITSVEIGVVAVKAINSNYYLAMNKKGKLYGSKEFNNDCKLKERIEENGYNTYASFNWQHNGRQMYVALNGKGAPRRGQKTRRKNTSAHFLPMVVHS

FGF3 = molecular target: T2, FGF3 (UniProt P11487)
T2 sequence: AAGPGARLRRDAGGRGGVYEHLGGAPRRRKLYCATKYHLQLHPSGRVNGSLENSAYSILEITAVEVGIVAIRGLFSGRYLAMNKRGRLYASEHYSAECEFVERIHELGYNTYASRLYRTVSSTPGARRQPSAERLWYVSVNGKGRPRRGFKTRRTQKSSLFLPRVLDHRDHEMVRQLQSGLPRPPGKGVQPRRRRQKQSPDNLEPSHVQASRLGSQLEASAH

FGF4 = molecular target: T3, FGF4 (UniProt P08620)
T3 sequence: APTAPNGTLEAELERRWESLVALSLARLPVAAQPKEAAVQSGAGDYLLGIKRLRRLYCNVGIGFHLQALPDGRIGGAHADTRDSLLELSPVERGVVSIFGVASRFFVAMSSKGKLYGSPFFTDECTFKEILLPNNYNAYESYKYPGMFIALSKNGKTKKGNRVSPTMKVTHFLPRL

FGF6 = molecular target: T4, FGF6 (UniProt P10767)
T4 sequence: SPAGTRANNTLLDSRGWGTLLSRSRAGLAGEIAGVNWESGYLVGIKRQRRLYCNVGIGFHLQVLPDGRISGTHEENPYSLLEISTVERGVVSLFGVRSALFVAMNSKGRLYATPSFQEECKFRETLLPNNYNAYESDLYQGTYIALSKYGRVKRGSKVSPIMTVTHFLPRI

- binding (FGF10): no binding
- binding (FGF3): no binding
- binding (FGF4): no binding
- binding (FGF6): no binding
Binder: ARPCA (N-terminal acetyl; C-terminal amide) [Ac-ARPCA-NH2, acetylated pentapeptide corresponding to PTX3(100-104)]
